Laboratory results as given in PubChem BioAssay AID1347076 (National Center for Advancing Translational Sciences (NCATS), 2019).
The campaign covered roughly 400,000 compounds. About 13,000 (3.2%) were called active. The shares of active, inactive and inconclusive entries below differ from those in the screen. Calls come from the whole dose curve; as a rule, active = well fitted cell-killing curve with a large enough effect; inconclusive = small, poorly fitted or top-dose-only effect, or effect the other way; inactive = flat fitted curve, though single readings scatter. Potencies of inconclusive entries are doubtful fits and often do not repeat.

experiment: qHTS assay for MDR1-selective chemotherapeutics: Primary screen using the drug-selected MDR subline cells KB-V1; details: KB-V1 MDR cells viability, CellTiter-Glo, 72 h; activity change, negative = cytotoxicity: at 46.1 µM (top of the series); note: nearly all actives have a fitted effect of over 60% in size
Summary of the method: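 qHTS viability screen in drug-selected KB-V1 MDR cells: 72 h compound treatment at 37 degrees C, ATP luminescence end point.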
% is set by controls: 0 for no effect and ±100 for the full control effect; potency is the fitted concentration of half-maximal effect.

Row | SMILES | Potency | activity change, negative = cytotoxicity
1 | CC(Nc1cccc2ccccc12)C(=O)N/N=C/c1ccccn1 (stereo not given) | inconclusive: 16.4 µM [cytotoxic, single point] | –
2 | COc1ccc(CNS(=O)(=O)c2cc(Br)cc3c2N(C(C)=O)C(C)C3)cc1 (stereo not given) | inconclusive: 6.51 µM [cytotoxic, partial curve] | –
3 | CCOC(=O)C1CCN(C(c2ccc(OCC)cc2)c2c(O)cc(C)n(CCOC)c2=O)CC1 (stereo not given) | – | inactive: 13.5%
4 | CCN(CC)S(=O)(=O)c1cccc(NC(=O)c2ccc(SC)cc2OC)c1 | inconclusive: 2.31 µM [cytotoxic, full curve] | –
5 | c1nc2n(n1)C1=C(CCCC1)C1(CCCCC1)N2 | – | inactive: -25.1%
6 | CCOC(=O)c1c(NC(=O)CCl)sc(CN(C)C)c1-c1ccccc1 | – | inactive: -22.3%
7 | O=C(Nc1ccc(Cl)cc1C(=O)Nc1ccncc1)c1ccco1 | inconclusive: 10.3 µM [cytotoxic, partial curve] | –
8 | CC(C)Oc1cccc(C(=O)C2CCCN(S(C)(=O)=O)C2)c1 (stereo not given) | inconclusive: 20.6 µM [cytotoxic, single point] | –
9 | CCOc1ccc(CNC(=O)CCS(=O)(=O)c2ccc3c(c2)NC(=O)CO3)cc1OC | inconclusive: 1.3 µM [rising, full curve] | –
10 | Cc1cc2occ(CC(=O)NCc3cccs3)c2cc1C(C)C | active: 20.6 µM | –
11 | CCCn1c(N)c(N(CCOC)C(=O)c2ccc(F)cc2)c(=O)[nH]c1=O | – | inactive: -1.54%
12 | Cc1cc(C)nc(Nc2nc(C(N)Cc3ccc(F)cc3)cs2)n1 (stereo not given) | inconclusive: 25.9 µM [cytotoxic, single point] | –
13 | Cc1ccc2c(=O)n3c(nc2c1)C(Cc1ccc(O)cc1)NC(=O)c1cccnc1-3 (stereo not given) | inconclusive: 29.1 µM [rising, single point] | –
14 | O=C(N/N=C/c1ccc(Br)s1)c1ccccc1[N+](=O)[O-] | inconclusive: 29.1 µM [cytotoxic, single point] | –
15 | Cc1cc(S(=O)(=O)N2CCN=C2c2ccccc2)ccc1F | inconclusive: 25.9 µM [cytotoxic, single point] | –
16 | CCCCc1c(-c2ccccc2OC)ncn1CCc1ccc(Cl)cc1 | active: 11.6 µM | –
17 | COc1ccc(C2NC(=O)NC3=C2CCc2ccccc23)cc1 (stereo not given) | active: 13 µM | –
18 | COc1ccc2oc(=O)c(-c3nnc(NCc4ccco4)s3)cc2c1 | inconclusive: 29.1 µM [cytotoxic, single point] | –
19 | CCOCC(=O)Nc1c(C(=O)Nc2ccc3c(c2)OCCO3)oc2ccccc12 | inconclusive: 10.3 µM [cytotoxic, partial curve, poor fit] | –
20 | CCCCNCc1cc(OC)c(OCC(N)=O)cc1Br | inconclusive: 23.1 µM [cytotoxic, single point] | –

Complete entries, looked up by structure. Order of values: Potency	activity change, negative = cytotoxicity
CCOCC(=O)Nc1c(C(=O)Nc2ccc3c(c2)OCCO3)oc2ccccc12 is listed as inconclusive: 10.3 µM [cytotoxic, partial curve, poor fit]	–
CCOC(=O)c1c(NC(=O)CCl)sc(CN(C)C)c1-c1ccccc1 is listed as –	inactive: -22.3%
